Reference: patent US20150337042A1 (AbbVie / Abbott, published 2015)
Residue numbers refer to the chain shown, from its start. No constants are given. Whether binding was seen depends on the method and setting. Binding can be weak; no strength is given.

B1: Antibody N (AbN) (antibody, V domains shown)
VH: EVQLQESGPGLVKPSQTLSLTCTVSGYSIGRDFAWNWIRQPPGKGLEWMGYISYSGNTRYQPSLKSRITISRDTSKNQFFLKLNSVTAADTATYYCVTASRGFPYWGQGTLVTVSS
VL: DIQMTQSPSSMSVSVGDRVTITCHSSQDITYNVGWLQQKPGKSFKGLIYHGSNLDHGVPSRFSGSGSGTDYTLTISSLQPEDFATYYCVQYDDFPWTFGGGTKLEIK
notes: Full length IgG1
B2: Antibody M (AbM) (antibody, V domains shown)
VH: B1 VH with S55N
VL: B1 VL
notes: Full length IgG1
B3: Antibody O (AbO) (antibody, V domains shown)
VH: B1 VH with R31K, S55N
VL: B1 VL
notes: Full length IgG1; also called Antibody 0
B4: Antibody G (AbG) (antibody, V domains shown)
VH: B1 VH with G30S, R31N, P41L, S55K, F103L
VL: B1 VL with V33I, S52A, H56D, D93E
notes: Full length IgG1
B5: Antibody P (AbP) (antibody, V domains shown)
VH: B1 VH with G30S, R31H, R101W, F103L, Y105W
VL: B1 VL with T30N, Y31M, S52A, N53I, H56D, D92A, D93E
notes: Full length IgG1
B6: Antibody J (AbJ) (antibody, V domains shown)
VH: B1 VH with R31K, F103L
VL: B1 VL with V33I, S52A, H56D, D93E
notes: Full length IgG1
B7: Antibody H (AbH) (antibody, V domains shown)
VH: B1 VH with R31K, S55N, F103L
VL: B1 VL with V33I, S52A, H56D, D93E
notes: Full length IgG1
B8: Antibody L (AbL) (antibody, V domains shown)
VH: B1 VH with R31K, S55N, F103L
VL: B1 VL
notes: Full length IgG1

These binders were tested against EGFRvIII extracellular domain (EGFR (1-29)-G-(298-645)-LESRGPF-Myc-NMHTG-6His) (human) (assay: SPR (Biacore T100)).

binding, binds:
B1
B2
B3
B4
B5
B6
B7
B8

The binders below were run against truncated wild type EGFR 1-525 (EGFR1 (1-525)-SRGPF-Myc-NMHTG-6His) (human) (assay: SPR (Biacore T100)).

binding, binds:
B1
B2
B3
B4
B5
B6
B7
B8

Each binder was assayed against truncated wild type EGFR 1-525 (EGFR1 (1-525)-SRGPF-Myc-NMHTG-6His) (human) (assay: SPR (summary of FIG. 6)).

binding, binds:
B1
B2
B3
B4
B5
B6
B7
B8
